Assay results as given in patent US10947260B2, “Phosphinolactone derivatives and pharmaceutical uses thereof” (INSTITUT NATIONAL DE LA SANTE ET DE LA RECHERCHE MEDICALE …, priority 2016, dated 2021).
For at least one compound, name, drawing or mass did not settle the structure.

Legend:
[1] = test system: mice treated with Aβ25-35; assay: Passive avoidance test, Aβ25-35 model; assay type: in vivo; settings: all tested doses 0.3-3 mg/kg IP; training Day 8, recall Day 9
Protocol: The amyloid-β[25-35] peptide (Aβ25-35) and control peptide (Sc.Aβ) were obtained from Genepep (Saint-Jean-de-Vedas, France). They were solubilized in injectable distilled water at a concentration of 3 mg/ml and stored at −20° C. Before injection, the peptides were incubated at 37° C. for 4 days, which enabled the Aβ25-35 peptide but not the Sc.Aβ, to form oligomers. They were administered via intracerebroventricular route (ICV). The animals were anesthetized by inhaling 2.5% isoflurane (TEM) and were given 3 μl of peptide solution via direct ICV route (Haley and McCormick's method). For injection a 10 μl Hamilton micro-syringe was used at a flow rate of 1 μl/min.
The apparatus contained two compartments (15×20×15 cm in height) with one light part having walls in white PVC and the other dark with walls in black PVC and a grid floor. A vertical sliding door separated each compartment. A 60 W lamp was positioned 40 cm above the white compartment during the experiment. Electrical shocks (0.3 mA for 3 s) were delivered to the grid floor by means of a scrambled shock generator (Lafayette Instruments, Lafayette, United States). The vertical sliding door was first closed during the training session. […] Step-through latency (STL) i.e. the time taken to enter the dark compartment and the number of cries, were recorded. […] Step-through latency was recorded up to 300 s. […]

APPSwe mice = assay: Object recognition test, APPSwe mice; assay type: in vivo; settings: 3b
Protocol: FIG. 9: Spatial learning in pool (a-c) and object recognition (d-f) for APPSwe mice after 2-month treatment with compound 3b. Pool: acquisition profiles of WT mice treated with V and 3b (2 mg/kg) (a) or APPSwe mice (b). (c) Presence in training quadrant (T) and mean in the other quadrants (o) during trial test performed 48 h after the last training session. Friedman non-parametric ANOVA with repeated measures: Fr=21.7, p<0.001 for the group WT/V, Fr=21.8, p<0.001 for the group WT/3b at (a); Fr=13.0, p<0.05 for group APPSwe/V, Fr=12.2, p<0.05 for group APPSwe/3b at (b). […]
The apparatus consisted of four square-shaped arenas (50 cm×50 cm×50 cm in height) made of white plexiglass and placed on a platform equipped with infrared light-emitting diodes (IR). The locomotor activity of the animal and position of the nose were able to be captured by an IR-sensitive camera and analysed using Videotrack and Nosetrack software. […] Each mouse was placed in the open field and exploratory activity and nose position were recorded for 10 min. Activity was analysed in terms of number of contacts with the objects and contact time. […] Each mouse was again placed in the open field and exploratory activity recorded for 10 min. Activity was analysed in similar manner. […]

CC1(C)COP(=O)(c2cccc(Cl)c2)C(C)(C)N1 (racemic) [Compound 3b, (±)-2-(3-Chlorophenyl)-2-oxo-3,3,5,5-tetramethyl-[1,4,2]-oxazaphosphinane]
passive avoidance response deficit (step-through latency) [1]: allowed prevention of this deficit
decrease in number of contacts with objects, APPSwe animals (APPSwe mice; 2-month treatment, sessions 2 and 3): prevented
deficit of novel object preference (contact times), APPSwe animals (APPSwe mice; session 3): attenuated, but non-significantly
